{"source": "patent US4232014A", "about": "“Aminoalkylindans and use as hypotensive agents” (Marion Laboratories, Inc., priority 1979, dated 1980)", "test_system": "Desoxycorticosterone Hypertensive Rats", "experiment": "Cardiovascular activity (blood pressure and heart rate) in desoxycorticosterone hypertensive rats", "parameters": "species or system male Charles River rats", "details": "rat, in vivo", "method": "The indirect measurements of blood pressure and heart rate were determined in male Charles River rats made hypertensive (systolic blood pressure >159 mm Hg) by subcutaneously implanting a wax-formulated pellet containing 10 mg of desoxycorticosterone acetate. Systolic blood pressure was measured in the caudal arteries of prewarmed (40° C.), unanesthetized, restrained animals by a pneumatic pulse transducer placed distal to an automated tail pressure cuff and was recorded on a physiograph. Heart rate was determined from the amplified pulse waves recorded during the blood pressure measurements. Prior to the actual experiments, animals were accustomed to the measurement handling procedure several times during the preceding weeks.\nControl systolic blood pressure and heart rates were determined in a group of usually six hypertensive rats on each day. A compound for evaluation was administered by intraperitoneal injection either in solution or as a suspension at 24 hr. intervals following injection. Mean values of the group for these parameters at a particular measurement period were calculated, and then the mean difference from control, along with its associated standard error, was calculated for each period. The statistical significance of the changes produced by a compound was tested by an analysis of variance and the Newman-Keuls a posteriori test when F was significant. […]"}
{"smiles": "N=C(N)NCCN1CCCCCCC1", "note": "[Guanethidine, reference compound]", "values": [{"measurement": "change in mean systolic blood pressure from control levels", "value": "significant depressions in mean systolic blood pressure from control levels"}]}
